Assay results from paper PMC6219760.
Results are given in words; binding and its absence hold for the method and conditions named. Binding seen in cells or lysates may run through a third protein. A yes stands for co-enrichment or nearness to the bait. Other partners may have been found. A no says only that the protein was not detected with the bait. Sequences can lack the tags named with a protein.

T1: Buc-GFP (Bucky ball fused to eGFP), from transgenic zebrafish (zebrafish) (UniProt H0WFA5)
T1 sequence: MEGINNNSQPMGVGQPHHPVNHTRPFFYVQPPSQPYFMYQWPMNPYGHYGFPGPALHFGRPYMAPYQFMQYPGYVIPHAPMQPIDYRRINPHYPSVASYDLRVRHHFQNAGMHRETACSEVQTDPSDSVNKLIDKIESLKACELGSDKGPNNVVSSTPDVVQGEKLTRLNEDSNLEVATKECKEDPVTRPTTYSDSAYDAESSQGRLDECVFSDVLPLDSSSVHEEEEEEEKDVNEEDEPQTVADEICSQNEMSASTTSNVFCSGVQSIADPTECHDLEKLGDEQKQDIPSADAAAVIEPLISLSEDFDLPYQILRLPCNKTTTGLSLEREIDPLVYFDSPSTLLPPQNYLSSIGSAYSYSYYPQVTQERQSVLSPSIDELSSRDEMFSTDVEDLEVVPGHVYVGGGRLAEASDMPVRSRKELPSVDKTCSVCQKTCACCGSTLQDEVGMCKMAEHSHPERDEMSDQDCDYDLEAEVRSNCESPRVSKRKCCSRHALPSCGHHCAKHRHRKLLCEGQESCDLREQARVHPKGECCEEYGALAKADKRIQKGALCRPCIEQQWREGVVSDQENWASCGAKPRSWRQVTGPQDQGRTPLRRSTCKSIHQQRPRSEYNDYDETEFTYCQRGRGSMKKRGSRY

B1: Vasa (Ddx4), endogenous in zebrafish embryos (protein, UniProt O42107 1-716)
chain: MDDWEEDQSPVVSCSSGFGLGSNGSDGGFKSFYTGGAGNDKSNSEGTEGSSWKMTGDSFRGRGGRGGSRGGRGGFSGFKSEIDENGSDGGWNGGESRGRGRGGFRGGFRSGSRDENDENRNDDGWKGGESRGRGRGGFGGSFRGGFRDGGNEDTGRRGFGRENNENGNDEGGEGRGRGRGGFRGGFRDGGGDESGKRGFGRGGFRGRNEEVFSKVTTADKLDQEGSENAGPKVVYVPPPPPEEESSIFSHYATGINFDKYDDILVDVSGSNPPKAIMTFEEAGLCDSLSKNVSKSGYVKPTPVQKHGIPIISAGRDLMACAQTGSGKTAAFLLPILQRFMTDGVAASKFSEIQEPEAIIVAPTRELINQIYLEARKFAYGTCVRPVVVYGGINTGYTIREVLKGCNVLCATPGRLHDLIGRGKIGLSKVRYLVLDEADRMLDMGFEPEMRKLVASPGMPSKEERQTLMFSATYPEDIQRMAADFLKVDYIFLAVGVVGGACSDVEQTVVQVDQYSKRDQLLELLRATGNERTMVFVETKRSADFIATFLCQEKISTTSIHGDREQREREKALSDFRLGHCPVLVATSVAARGLDIEQVQHVVNFDMPSSIDEYVHRIGRTGRCGNTGRAVSFFNPESDTPLARSLVKVLSGAQQVVPKWLEEVAFSAHGTTGFNPRGKVFASTDSRKGGSFKSDEPPPSQTSAPSAAAAADDEEWE
B2: Valois homolog (Wdr77/Mep50), endogenous in zebrafish embryos (protein, UniProt Q7SZR9 1-319)
chain: MLKENPWNIPVTAPACMDKHLDAIDYRKDGVLLLAASSLSGRCWQGSLWVYSDPKLAPSEGFCRAGVQTEAGVSDVHWISDRALLLASDSGSVELWDLAEDERLLVNRFSRQEHGDVVTGVSACVGGRTAVSCSADCRIKVWDLNQETVINSYNAHSQPVSGVSCSPVDEFLFLSCAQDGRLLLWDQRKDKPATRIDVQSPSCSPTAVVWHPQHSSTIAYGDELGRVTVKDLKASDGVKTTHTHRRRVNRLAYSDDSAALLASISDDCSVAVHTAELREIFRDRRHQDFVRGVCWSPGGSSALTTVGWDHQVLHHTPEH
B3: Ziwi (piwil1), endogenous in zebrafish embryos (protein, UniProt Q8UVX0 1-858)
chain: MTGRARARSRGRGRGQEPAAPGAQPPVSQEAAKPVVSTPSEGQLVGRGRQKPAPGAMSEEAMLQISAGFQQVKIGERGGRRRDFHDSGVHTRQLMEHVKESKTGVSGTAIELRANFMRLLSRPMWALYQYHVDYKPPMESRRLRSALLFQHEETLGKAHTFDGAILFLPNKLRNAETVLCSETRNGEKVEITVTLTNELPPSSPVCLQFYNILFRRILRILNMQQIGRHYYNPDDPFNIPQHRLTIWPGFMTTILQYESSIMLCSDVSHKVLRSETVLDFMYSLRQQCGDQRFPEACTKELVGLIILTKYNNKTYRIDDIAWDHTPNNTFKKGDTEISFKNYFKSQYGLDITDGNQVLLVSHVKRLGPSGRPPPGPAMLVPEFCYLTGLTDKMRADFNIMKDLASHTRLSPEQREGRINRLISNINRNGDVQNELTTWGLSFENKLLSLNGRVLPSERIIQGGRAFEYNPWTADWSKEMRGLPLISCMSLDNWLMFYTRRNADVAQSLLQTLNKVSGPMGIRMQRAVMIEYEDRQESLLRALQQNVARETQMVVVILPTNRKDKYDCVKKYLCVDCPTPSQCVVSRTISKPQALMTVATKIALQMNCKMGGELWSVEIPLRQLMIVGIDCYHDTAAGKRSIGAMVASLNQGMSRWFSKCVLQNRGQEIIDALKGSLQGALKAYLKYNNSLPSRIIVYRDGVGDGMLQSVVDYEVPQIMQSIKTMGQDYEPKLSVVVVKKRISSRFFARIDGKIANPPPGTVIDTEVTRPEWYDFFIVSQAVRFGCVAPTHYNVVFDNSGLKPDHMQRLTYKLCHMYYNWQGIVRVPAPCQYAHKLAFLVGQSIHKEPNMNLDDFLYYL

Molecular target: T1, Buc-GFP (Bucky ball fused to eGFP), from transgenic zebrafish (zebrafish)
Assay: affinity purification with mass spectrometry; Buc-GFP held on GFP-Trap magnetic beads from extracts of Buc-GFP transgenic zebrafish embryos; GFP-control samples; lysis buffer 10 mM Tris pH 7.5, 150 mM NaCl, 0.5 mM EDTA, 0.5% NP-40

Row | Binder | binding
1 | B1 | binds
2 | B2 | binds
3 | B3 | no binding
